This note sets out measurements from paper PMC7819943, “Rice protein-binding microarrays: a tool to detect cis-acting elements near promoter regions in rice”.

Protein sequences, listed by entry. Tags and fused reporters are not part of them.
UniProt Q0JBA9, entry or part of it: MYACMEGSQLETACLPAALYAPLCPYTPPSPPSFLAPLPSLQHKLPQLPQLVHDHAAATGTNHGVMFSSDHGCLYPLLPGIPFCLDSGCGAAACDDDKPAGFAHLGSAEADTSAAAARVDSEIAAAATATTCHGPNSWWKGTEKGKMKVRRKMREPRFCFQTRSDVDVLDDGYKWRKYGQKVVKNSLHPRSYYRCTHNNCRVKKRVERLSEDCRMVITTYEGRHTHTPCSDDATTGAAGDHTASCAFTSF

The list shows a part of the results.

The target in the test is OsWRKY34 (Oryza sativa, UniProt Q0JBA9 1-250). As to the kind of experiment: protein-binding microarray (RPBM); PBS, 2% BSA, 51.3 ng/ul salmon testes DNA, 50 uM zinc acetate, 200 nM TF, 25 C, 1 h; high values mean tight binding. To be noted: protein: recombinant; tags: N-terminal polyhistidine and DsRed monomer fusion (pET32a); label: CyDye5-dUTP incorporated in the synthesized complementary strand; 3' TTTTT single-stranded linker to array surface; dsDNA, one strand shown. A digest of the protocol:
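Transcription factors were made in E. coli BL21-CodonPlus as N-terminal fusions to a polyhistidine tag and DsRed, then purified on Ni–NTA. After primer extension with Cy5-dUTP and blocking with 2% BSA, a custom Agilent array was exposed for 1 h at 25 °C to 200 nM protein in PBS, 2% BSA, salmon testes DNA and 50 µM zinc acetate. Washed arrays were scanned on an Axon 4000B, and the binding signal is per-feature fluorescence intensity in arbitrary units.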
For the sequence “CCTACACACATACAATTCTCCTTAATTAATTCGATCGACACGGAGTCACCTAGTGCAG”, the binding signal was 9210 fluorescence intensity (a.u.).
With “CTGCAGCTTTATGTCAGTTTCCCTACTTTGTGTGTGTTTTCGGAGTCACCTAGTGCAG” the figure was 10600 fluorescence intensity (a.u.); with “ACTAATTAACCAGTGGAACTGTTGCTGTTGCTGTCATGCACGGAGTCACCTAGTGCAG”, 8120 fluorescence intensity (a.u.).
With “TTTTTTTTGCGCATGATGTAGCATCTCCAAACAGAAATGCCGGAGTCACCTAGTGCAG” the figure was 8880 fluorescence intensity (a.u.).
With “TGCAGGCCCAACCCTTTTTCTCCTCCATCGCCGAGAAGTCCGGAGTCACCTAGTGCAG” the figure was 8420 fluorescence intensity (a.u.); with “CACATGTCGCCTCCTCGCTGTCTCCGCCCAGTCCGCCAGCCGGAGTCACCTAGTGCAG”, 8480 fluorescence intensity (a.u.); with “ACCCCATATGTCAACCACATGACATATTTTTTTCTCCTCTCGGAGTCACCTAGTGCAG”, 8170 fluorescence intensity (a.u.).
On to “CCAGTTCCAATTTTCCATGGCGACCTTGGCGCGCGTCTCCCGGAGTCACCTAGTGCAG”, for which the binding signal is 10900 fluorescence intensity (a.u.).
The same measure for “AATATCTCATACTCCTACCTTCTTTTGGAATTTCCTCTGACGGAGTCACCTAGTGCAG”: 9710 fluorescence intensity (a.u.); for “CTGTGACCGCCACCGTCGTGGCACCGCGCTCCTTCTCTCCCGGAGTCACCTAGTGCAG”: 8640 fluorescence intensity (a.u.); for “GCCCCATCCATCTAATGCAAGTGCTGGTTGCTTGTGTCGACGGAGTCACCTAGTGCAG”: 8580 fluorescence intensity (a.u.).
The same measure for “CCCACCGTTTCCAAATGTTTGACGCCGTTGACTTTTTATCCGGAGTCACCTAGTGCAG”: 31900 fluorescence intensity (a.u.).
Regarding “GCACCTACTAGCTTATTATTCTTGTGCCTAGTATTAATTACGGAGTCACCTAGTGCAG”, the binding signal is 9590 fluorescence intensity (a.u.).
Regarding “AATCTGTGGGCAGGGGCGGCGACGTCGGCGGGCGAGGGCTCGGAGTCACCTAGTGCAG”, the binding signal is 8660 fluorescence intensity (a.u.).
With “AATACTCCTCATATGCTTAGTTGTTTAGTAGTGTTAATTACGGAGTCACCTAGTGCAG” the figure was 12000 fluorescence intensity (a.u.); with “ACTGTGCAATTAATTTTTTTTCGTCCACATTTAATGTTCCCGGAGTCACCTAGTGCAG”, 8630 fluorescence intensity (a.u.); with “TCTGAAGATGAGAGAGAGCTCACAGTTTATGGTTTTTGTACGGAGTCACCTAGTGCAG”, 8830 fluorescence intensity (a.u.).
The same measure for “CTCCAATTCAGCCATTATTCACCTATCTTCTCCAGCCATGCGGAGTCACCTAGTGCAG”: 8260 fluorescence intensity (a.u.); for “TGTTTCTAAGATCTTCGTCCTAGCACATATACCATCACATCGGAGTCACCTAGTGCAG”: 11000 fluorescence intensity (a.u.); for “ATTATGGTTGTCTGTCTGTGTCCTGTGCTCTCTAGATACACGGAGTCACCTAGTGCAG”: 10300 fluorescence intensity (a.u.).
With “GTGTTGTGGTTTACTGAATTGATGTTTGGCTTAAGTGATGCGGAGTCACCTAGTGCAG” the figure was 11800 fluorescence intensity (a.u.); with “TACAATCCAACCCTATATACCCTCGTTGCCATCTGTCTTACGGAGTCACCTAGTGCAG”, 13000 fluorescence intensity (a.u.).
Turning to “GGTTGTTGAGATTAGTCCTATCCTTTGTACACGCCACGGCCGGAGTCACCTAGTGCAG”, the binding signal was 10900 fluorescence intensity (a.u.).
The same measure for “CTCTCGCCGTCGCTTGCCCCTCGCGCCACCGCGTCCGCCTCGGAGTCACCTAGTGCAG”: 8700 fluorescence intensity (a.u.); for “AGAAGTTACTCCCTACATTTACTTTTGATATGCATATTTCCGGAGTCACCTAGTGCAG”: 10700 fluorescence intensity (a.u.); for “GACTCCATCTCCCTCTTCGTCGACGTCGCCGGCGGCGGCGCGGAGTCACCTAGTGCAG”: 8130 fluorescence intensity (a.u.).
Regarding “GTTGAGTCTGCCCTCGTAACCACCAACTAACATGTAAGCCCGGAGTCACCTAGTGCAG”, the binding signal was 9750 fluorescence intensity (a.u.).
Take “GGGGCGGATAGGGGAGAACGAAGCGTGCGCGATCTGATCGCGGAGTCACCTAGTGCAG”: the binding signal was 8850 fluorescence intensity (a.u.).
Take “CCTCGCGCTCTCTCTCTTCTTTCCCTCGGCCGCGCGGCCGCGGAGTCACCTAGTGCAG”: the binding signal was 10400 fluorescence intensity (a.u.).
Consider “CCTCCACACTCGCGGCGACCTCGTCGGCCTGTCACCTTTCCGGAGTCACCTAGTGCAG”, for which the binding signal is 8280 fluorescence intensity (a.u.).
The same measure for “ACGTTTTGCAATCCTCTGTTGTGTAGTTCTTTTTTATTAGCGGAGTCACCTAGTGCAG”: 8970 fluorescence intensity (a.u.).
With “ATACTCAAACCCCAATATTAGTTTACTCTCACGTTATCTTCGGAGTCACCTAGTGCAG” the figure was 8550 fluorescence intensity (a.u.).
With “CCTCTCCCTCGTGTTCCGCGCACACCATTTTTAAATAACTCGGAGTCACCTAGTGCAG” the figure was 8320 fluorescence intensity (a.u.); with “CTTTTATTTTTCATTTTTCCAATATGCTAGTATTTCTTTCCGGAGTCACCTAGTGCAG”, 9440 fluorescence intensity (a.u.); with “AATAGTGATGTTTTTCACGTGTAATTATACAGATTTCTCACGGAGTCACCTAGTGCAG”, 8180 fluorescence intensity (a.u.).
For “CACCCCTAGCCGTCAGTGTATTTCACTCATCAATTAAATTCGGAGTCACCTAGTGCAG”, the binding signal was 9010 fluorescence intensity (a.u.).
Regarding “TGATCTATTTTTGCGTGGTTGGGCCAAGGGGAGGAGGAGTCGGAGTCACCTAGTGCAG”, the binding signal is 10300 fluorescence intensity (a.u.).
With “TATCTGCATGGATCATATTTGTGTACGTCGTTGTTCTCCTCGGAGTCACCTAGTGCAG” the figure was 8500 fluorescence intensity (a.u.); with “GACCTAGCTAAAGTGTTCTTTTGTTGATGTATTTCCAATCCGGAGTCACCTAGTGCAG”, 8320 fluorescence intensity (a.u.); with “AACGAGTGAAGCTCACTGCGGCTAGCTGCTGTCTTGTGTTCGGAGTCACCTAGTGCAG”, 8300 fluorescence intensity (a.u.).
With “TGCCGCCGCCGCCGCCACCACTGCTCCGCCTCCGATTGCTCGGAGTCACCTAGTGCAG” the figure was 8570 fluorescence intensity (a.u.).
Consider “TGGTGTTGTTGGTGTCGTCTTGTTCTTGTTTGTGTTTTCTCGGAGTCACCTAGTGCAG”, for which the binding signal was 15900 fluorescence intensity (a.u.).
